According to PubChem BioAssay AID328 (DTP/NCI, 2004):
The list does not hold the whole screen: it gathers tests that were run many times, whatever their T/C, doses with no T/C, and many T/C values between a quarter and a half above the control. Other doses and runs of a compound stand elsewhere. T/C is the treated group as % of the vehicle group. Some doses have a count of surviving animals in place of a T/C: the source files T/C as zero there, which appears to mark a toxic dose or a test without result, not a measured value. Some survivor counts are full or nearly so, which does not show that the dose was tolerated: survival well below the control is almost never listed, so the zero probably covers shortened survival too. Survivors were counted at the toxicity check, usually on the fifth day, unless a day is given; later deaths do not show. Schedule codes are those of the source, read here as Q, the interval in days (D) or hours (H), X, the number of doses. Where survival is the endpoint, this PubChem deposit counts one and a half times the control or more as active, and values a quarter to a half above the control carry no call in these data; other NCI protocols may use other cut-offs. Some T/C values are followed by the survivors on the day toxicity was checked, most often the fifth; where none is given, no animal had died by that day.

Tested on: BDF1 mice, P388 leukemia ip, median survival T/C
Assay: NCI In Vivo Anticancer Drug Screen. Data for tumor model P388 Leukemia (intraperitoneal) in B6D2F1 (BDF1) mice
Conditions: T/C endpoint: median survival time, higher T/C = longer survival
Method in brief: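 T/C = treated-group survival ÷ vehicle-control survival; tumour transplanted into mice before dosing.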

[1] = dose: 12.5 mg/kg/injection, schedule: Q01DX009 (ip), vehicle: Klucel (hydroxypropylcellulose) (HPC)
[2] = dose: 25.0 mg/kg/injection, schedule: Q01DX009 (ip), vehicle: Klucel (hydroxypropylcellulose) (HPC)
[3] = dose: 50.0 mg/kg/injection, schedule: Q01DX009 (ip), vehicle: Klucel (hydroxypropylcellulose) (HPC)
[4] = dose: 100.0 mg/kg/injection, schedule: Q01DX009 (ip), vehicle: Klucel (hydroxypropylcellulose) (HPC)
[5] = dose: 400.0 mg/kg/injection, schedule: Q04DX003 (ip), vehicle: Klucel (hydroxypropylcellulose) (HPC)
[6] = dose: 200.0 mg/kg/injection, schedule: Q04DX003 (ip), vehicle: saline with Tween-80
[7] = dose: 400.0 mg/kg/injection, schedule: Q04DX003 (ip), vehicle: saline with Tween-80
[8] = dose: 50.0 mg/kg/injection, schedule: Q04DX003 (ip), vehicle: Klucel (hydroxypropylcellulose) (HPC)
[9] = dose: 50.0 mg/kg/injection, schedule: Q04DX003 (ip), vehicle: saline
[10] = dose: 100.0 mg/kg/injection, schedule: Q01DX009 (ip), vehicle: saline with Tween-80

SMILES: COC1C(O)=C2C(=O)OC(C)(O)/C=C/C=C\C=C/C=C/C(c3ccccc3)NC(=O)/C=C/C=C/C=C/C=C/C2(C)C1O (stereo not drawn)
- survivor count (dose: 3.12 mg/kg/injection, schedule: Q01DX009 (ip), vehicle: Klucel (hydroxypropylcellulose) (HPC)): 4 of 6
- survivor count (dose: 6.25 mg/kg/injection, schedule: Q01DX009 (ip), vehicle: Klucel (hydroxypropylcellulose) (HPC)): 4 of 6
- T/C [1]: 140 % of control
- survivor count [1]: 5 of 6
- survivor count (dose: 16.0 mg/kg/injection, schedule: Q01DX009 (ip), vehicle: Klucel (hydroxypropylcellulose) (HPC)): 0 of 6
- T/C [2]: 140 % of control
- survivor count [2]: 1 of 6
- survivor count (dose: 35.0 mg/kg/injection, schedule: Q01DX009 (ip), vehicle: Klucel (hydroxypropylcellulose) (HPC)): 1 of 6
- survivor count [3]: 2 of 6
- survivor count [4]: 1 of 6

SMILES: O=c1c2ccccc2cc2ccccn12
- survivor count (dose: 400.0 mg/kg/injection, schedule: Q01DX009 (ip), vehicle: Klucel (hydroxypropylcellulose) (HPC)): 1 of 6
- survivor count [5]: 3 of 6

SMILES: COc1ccc2c(C)c3[n+](cc2c1OC)CCc1cc2c(cc1-3)OCO2
- survivor count (dose: 3.12 mg/kg/injection, schedule: Q01DX005 (ip), vehicle: saline with Tween-80): 6 of 6
- survivor count (dose: 6.25 mg/kg/injection, schedule: Q01DX005 (ip), vehicle: saline with Tween-80): 3 of 6
- survivor count (dose: 12.5 mg/kg/injection, schedule: Q01DX005 (ip), vehicle: saline with Tween-80): 3 of 6
- survivor count (dose: 50.0 mg/kg/injection, schedule: Q01DX005 (ip), vehicle: saline with Tween-80): 0 of 6
- survivor count (dose: 100.0 mg/kg/injection, schedule: Q01DX005 (ip), vehicle: saline with Tween-80): 0 of 6
- survivor count (dose: 200.0 mg/kg/injection, schedule: Q01DX005 (ip), vehicle: saline with Tween-80): 0 of 6

SMILES: O=C(O)CCNCc1ccccc1
- survivor count (dose: 400.0 mg/kg/injection, schedule: Q01DX009 (ip), vehicle: saline): 6 of 6

SMILES: Cc1cc(C)c(S(=O)(=O)O)cc1C
- survivor count [6]: 3 of 6

SMILES: C[N+](C)(Cc1ccccc1)CC(O)COc1ccccc1 (stereo not drawn)
- survivor count (dose: 50.0 mg/kg/injection, schedule: Q01DX009 (ip), vehicle: saline with Tween-80): 5 of 6

SMILES: CCOC(=O)C(C#N)c1cccc(C)c1 (stereo not drawn)
- survivor count [7]: 0 of 6

SMILES: CN=C(C)c1ccc(N(C)C)cc1
- T/C [8]: 129 % of control
- T/C (dose: 100.0 mg/kg/injection, schedule: Q04DX003 (ip), vehicle: Klucel (hydroxypropylcellulose) (HPC)): 145 % of control
- T/C (dose: 200.0 mg/kg/injection, schedule: Q04DX003 (ip), vehicle: Klucel (hydroxypropylcellulose) (HPC)): 142 % of control [4 of 6 alive]
- survivor count [5]: 0 of 6

SMILES: C=C(C)C12OC3(c4ccccc4)OC1C1C4OC4(CO)C(O)C4(O)C(=O)C(C)=CC4C1(O3)C(C)C2OC(=O)c1ccccc1 (stereo not drawn)
- T/C (dose: 25.0 micrograms/kg/injection, schedule: Q01DX009 (ip), vehicle: saline + alcohol): 127 % of control
- T/C (dose: 50.0 micrograms/kg/injection, schedule: Q01DX009 (ip), vehicle: saline + alcohol): 134 % of control
- T/C (dose: 100.0 micrograms/kg/injection, schedule: Q01DX009 (ip), vehicle: saline + alcohol): 144 % of control

SMILES: OC1c2cc(Cl)ccc2-c2c(Cl)cc(Cl)cc21 (stereo not drawn)
- survivor count [7]: 3 of 6

SMILES: Cc1ccc(NCC2(/N=C/c3ccccc3)OC(CO)C(O)C2O)cc1 (stereo not drawn)
- T/C [4]: 129 % of control [5 of 6 alive]

SMILES: O=CC1CO1 (stereo not drawn)
- T/C (dose: 50.0 mg/kg/injection, schedule: Q01DX009 (ip), vehicle: saline sonified): 136 % of control [5 of 6 alive]
- T/C (dose: 50.0 mg/kg/injection, schedule: Q01DX009 (ip), vehicle: saline): 125 % of control
- survivor count (dose: 75.0 mg/kg/injection, schedule: Q01DX009 (ip), vehicle: saline sonified): 3 of 6
- T/C (dose: 75.0 mg/kg/injection, schedule: Q01DX009 (ip), vehicle: saline): 125 % of control

SMILES: CCCC1([N+](C)(C)C)CSC1CC (stereo not drawn)
- survivor count (dose: 100.0 mg/kg/injection, schedule: Q04DX002 (ip), vehicle: saline with Tween-80): 4 of 6
- survivor count (dose: 200.0 mg/kg/injection, schedule: Q04DX002 (ip), vehicle: saline with Tween-80): 0 of 6
- survivor count (dose: 400.0 mg/kg/injection, schedule: Q04DX002 (ip), vehicle: saline with Tween-80): 0 of 6

SMILES: CCOC(=O)CN(C)C#N
- T/C (dose: 200.0 mg/kg/injection, schedule: Q01DX009 (ip), vehicle: saline): 125 % of control

SMILES: COc1cc(C(C2=C(O)c3ccccc3C(=O)C2=O)C2=C(O)c3ccccc3C(=O)C2=O)cc(Br)c1O
- T/C (dose: 50.0 mg/kg/injection, schedule: Q01DX001 (ip), vehicle: saline): 142 % of control

SMILES: O=C1C(C2CCCCC2)CCCC1C1CCCCC1 (stereo not drawn)
- survivor count (dose: 400.0 mg/kg/injection, schedule: Q01DX001 (ip), vehicle: saline with Tween-80): 6 of 6

SMILES: CCC1=C(C[C@H]2NCCc3cc(OC)c(OC)cc32)C[C@H]2c3cc(OC)c(OC)cc3CCN2C1
- T/C (dose: 8.0 mg/kg/injection, schedule: Q04DX003 (ip), vehicle: saline): 130 % of control
- T/C (dose: 10.0 mg/kg/injection, schedule: Q04DX003 (ip), vehicle: saline with Tween-80): 131 % of control
- T/C (dose: 10.8 mg/kg/injection, schedule: Q04DX003 (ip), vehicle: saline): 126 % of control
- T/C (dose: 18.0 mg/kg/injection, schedule: Q04DX003 (ip), vehicle: saline): 141 % of control
- survivor count (dose: 22.0 mg/kg/injection, schedule: Q01DX009 (ip), vehicle: Klucel (hydroxypropylcellulose) (HPC)): 4 of 6
- T/C (dose: 22.0 mg/kg/injection, schedule: Q04DX003 (ip), vehicle: saline): 127 % of control
- T/C (dose: 30.0 mg/kg/injection, schedule: Q04DX003 (ip), vehicle: saline): 147 % of control [7 of 8 alive]
- survivor count (dose: 33.0 mg/kg/injection, schedule: Q01DX009 (ip), vehicle: Klucel (hydroxypropylcellulose) (HPC)): 0 of 6
- survivor count [3]: 0 of 6
- survivor count [8]: 6 of 6
- T/C [9]: 145 % of control [5 of 6 alive]
- survivor count [9]: 6 of 8
- survivor count (dose: 64.0 mg/kg/injection, schedule: Q04DX003 (ip), vehicle: saline): 5 of 8
- survivor count (dose: 75.0 mg/kg/injection, schedule: Q01DX009 (ip), vehicle: Klucel (hydroxypropylcellulose) (HPC)): 0 of 6
- survivor count (dose: 75.0 mg/kg/injection, schedule: Q04DX003 (ip), vehicle: Klucel (hydroxypropylcellulose) (HPC)): 1 of 6
- survivor count (dose: 75.0 mg/kg/injection, schedule: Q04DX003 (ip), vehicle: saline with Tween-80): 3 of 6

SMILES: N#Cc1ccc(C(=O)CC(O)(C(F)(F)F)C(F)(F)F)cc1
- T/C (dose: 100.0 mg/kg/injection, schedule: Q04DX003 (ip), vehicle: saline with Tween-80): 130 % of control

SMILES: NC(N)=NC(N)=Nc1ccc2ccc3cccc4ccc1c2c34
- survivor count (dose: 100.0 mg/kg/injection, schedule: Q04DX003 (ip), vehicle: saline + alcohol): 3 of 6

SMILES: O=C(O)c1[nH]c(=O)[nH]c(=O)c1F
- T/C (dose: 1.25 mg/kg/injection, schedule: Q01DX010 (ip), vehicle: saline): 142 % of control
- T/C (dose: 5.0 mg/kg/injection, schedule: Q01DX010 (ip), vehicle: saline): 142 % of control

SMILES: OCC(Br)(Br)Br
- survivor count (dose: 400.0 mg/kg/injection, schedule: Q01DX009 (ip), vehicle: other): 0 of 6

SMILES: CCCCNC(C)(C)C(SSSC(c1ccc(C(F)(F)F)cc1)C(C)(C)NCCCC)c1ccc(C(F)(F)F)cc1 (stereo not drawn)
- T/C (dose: 200.0 mg/kg/injection, schedule: Q04DX003 (ip), vehicle: saline): 125 % of control

SMILES: C=CCN1CSC(=S)N(CC=C)C1
- survivor count [10]: 3 of 6
- survivor count (dose: 200.0 mg/kg/injection, schedule: Q01DX009 (ip), vehicle: saline with Tween-80): 1 of 6

SMILES: COc1ccc(/C=C(/C)[N+](=O)[O-])cc1OC
- survivor count [5]: 5 of 6

SMILES: CC(CO)(CI)[n+]1ccccc1 (stereo not drawn)
- survivor count [10]: 5 of 6
- survivor count [6]: 1 of 6
